# In PubChem BioAssay AID651640 (Broad Institute, 2012):
# Among all 350,000 compounds or so, about 6,000 (1.7%) were called active. Inconclusive means that the source gave no clear call. Such entries were picked first, then a sample of the others. No stated cut-off is given here; in the data, active means CPE inhibition above about 20% (passing the limit was not always enough); inconclusive means no clear call, values can overlap the other calls; tested in BHK-21 cells.
# Assay: protection of cells from dengue 2 killing – plate reader, single concentration, primary screen (AID 651640);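 further: 0% = median of neutral control wells and 100% = median of positive control wells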
# Settings: DENV2-infected cells, cytopathic effect rescue, at 9.99 µM, hits give high values
row,SMILES,CPE inhibition
1,C#CCOCCOCCOCCNc1nc(N2CCN(C(=O)[C@H](C)n3cc(CCCN=C(N)N)nn3)CC2)nc(N2CCN(C(=O)[C@H](C)n3cc(CCCN=C(N)N)nn3)CC2)n1,inconclusive: 31.3%
2,CC(C)(C)OC(=O)[C@H](Cc1ccccc1)NC(=O)c1nc[nH]c1C(=O)NCC(=O)OCc1ccccc1,inactive: -7.12%
3,COCC#Cc1cnc2c(c1)C(=O)N([C@@H](C)CO)C[C@H](C)[C@@H](CN(C)C(=O)NC1CCCC1)O2,inactive: 7.07%
4,OC[C@H]1[C@@H](c2ccc(C#CC3(O)CCCC3)cc2)[C@@H]2CN(Cc3ccccc3F)CCCCN12,active: 41.4%
5,O=C(NC1CCCCC1)c1ccc2c(c1)OCO2,inconclusive: 24.7%
6,C[C@H](CO)N1C[C@H](C)[C@@H](CN(C)S(=O)(=O)c2ccc(F)cc2)Oc2ccc(NC(=O)CCN3CCOCC3)cc2C1=O,inconclusive: 36%
7,CNC(=O)C[C@H]1C(=O)N(CCc2ccccc2)C[C@@H]1C,inconclusive: 28.3%
8,CC(=O)N(C)C[C@@H]1Oc2ncc(C#Cc3ccncc3)cc2C(=O)N([C@H](C)CO)C[C@H]1C,inactive: 2.74%
9,CC(C)NC(=O)N[C@@H]1CC[C@H](CCn2cc(-c3ccc(F)cc3)nn2)O[C@@H]1CO,inactive: 14.6%
10,CCOC(=O)C(=O)NNc1cccc(C)c1C,inconclusive: 26.2%
11,C[C@H](CO)N1C[C@H](C)[C@@H](CN(C)C(=O)Nc2ccccc2F)OCc2cnnn2CCCC1=O,inconclusive: 23.9%
12,C[C@@H]1CN([C@H](C)CO)S(=O)(=O)c2ccc(-c3cncnc3)cc2O[C@H]1CN(C)C,active: 34.5%
13,C[C@@H]1CN([C@H](C)CO)C(=O)c2cc(C#CC3CCCCC3)cnc2O[C@H]1CN(C)S(=O)(=O)c1ccc(F)cc1,inconclusive: 28.7%
14,CCO[C@H]1OC(C(=O)NCc2nc3ccccc3[nH]2)=C[C@@H](c2csc3ccccc23)[C@@H]1CCCO,inconclusive: 35.3%
15,CCC(=O)Nc1ccc2c(c1)OC[C@H](C)NC[C@H](C)[C@H](OC)CN(C)C2=O,active: 20.8%
16,Cc1c(NC(=O)CSc2ccc(Cl)cc2)cccc1-c1nc2cc(Cl)ccc2o1,inconclusive: 63.7%
17,Cc1ccc(C(c2sc3nc(C)nn3c2O)N2CCN(C(=O)c3ccco3)CC2)cc1 (configuration not stated),inactive: -4.67%
18,CCCC(=O)NC(c1ccc(Cl)cc1)c1ccc2cccnc2c1O (configuration not stated),inactive: 3.93%
19,CC(Oc1ccc2ccc(=O)oc2c1)C(=O)NC(Cc1c[nH]c2ccc(O)cc12)C(=O)O (configuration not stated),active: 102%
20,CCCNC(=O)c1oc2ccc3c(c2c1C)C=CC(C)(C)O3,inconclusive: 40.7%
21,COC(=O)[C@]12C[C@H](CC(=O)NCCCCc3ccccc3)C(=O)N(Cc3ccccc3)C1=C[C@H](C(C)C)O[C@@H]2C1CC1,inactive: -11.9%
22,COCCCn1c(C(=O)N2CCOCC2)cc2c(=O)n3ccccc3nc21,inactive: 7.83%
23,COc1ccc2ccccc2c1/C=N/NC(=O)c1ccccc1F,active: 44.3%
24,O=C(Nc1nonc1-c1ccc(Cl)cc1)c1ccco1,inconclusive: 31.7%

# In a second layout: results already given
row | SMILES | CPE inhibition
3 | COCC#Cc1cnc2c(c1)C(=O)N([C@@H](C)CO)C[C@H](C)[C@@H](CN(C)C(=O)NC1CCCC1)O2 | inactive: 7.07%
5 | O=C(NC1CCCCC1)c1ccc2c(c1)OCO2 | inconclusive: 24.7%
7 | CNC(=O)C[C@H]1C(=O)N(CCc2ccccc2)C[C@@H]1C | inconclusive: 28.3%
8 | CC(=O)N(C)C[C@@H]1Oc2ncc(C#Cc3ccncc3)cc2C(=O)N([C@H](C)CO)C[C@H]1C | inactive: 2.74%
10 | CCOC(=O)C(=O)NNc1cccc(C)c1C | inconclusive: 26.2%
12 | C[C@@H]1CN([C@H](C)CO)S(=O)(=O)c2ccc(-c3cncnc3)cc2O[C@H]1CN(C)C | active: 34.5%
14 | CCO[C@H]1OC(C(=O)NCc2nc3ccccc3[nH]2)=C[C@@H](c2csc3ccccc23)[C@@H]1CCCO | inconclusive: 35.3%
17 | Cc1ccc(C(c2sc3nc(C)nn3c2O)N2CCN(C(=O)c3ccco3)CC2)cc1 (configuration not stated) | inactive: -4.67%
20 | CCCNC(=O)c1oc2ccc3c(c2c1C)C=CC(C)(C)O3 | inconclusive: 40.7%
21 | COC(=O)[C@]12C[C@H](CC(=O)NCCCCc3ccccc3)C(=O)N(Cc3ccccc3)C1=C[C@H](C(C)C)O[C@@H]2C1CC1 | inactive: -11.9%
22 | COCCCn1c(C(=O)N2CCOCC2)cc2c(=O)n3ccccc3nc21 | inactive: 7.83%

# (more compounds)

row,SMILES,CPE inhibition
1,O=C(C[C@@H]1CC[C@@H]2[C@H](COC[C@@H](O)CN2Cc2cccc(C(F)(F)F)c2)O1)NCc1ccc(Cl)cc1,inactive: -0.443%
2,CC(C)N(Cc1nnc(-c2ccc(Cl)cc2)o1)C(=O)C1=COCCO1,inconclusive: 26.9%
3,CCOc1ccc(CNC(=S)NCc2ccc(OCC)cc2)cc1,inactive: 0.971%
4,COc1cc(CCCN2CCNC[C@@H]2c2ccccc2)cc(OC)c1OC,active: 70.2%
5,O=[N+]([O-])c1c(Nc2ccccc2O)cc(Cl)c2nonc12,inactive: 5.44%
6,Cc1noc(C)c1NC(=O)Nc1cccc2c1O[C@@H](CN(C)S(=O)(=O)c1cn(C)cn1)[C@@H](C)CN([C@H](C)CO)C2=O,inconclusive: 32.4%
7,COc1ccccc1CNC(=O)CCCN1C(=O)NC2(CCCC2)C1=O,active: 54.7%
8,Nc1[nH]c(C(=O)c2ccccc2)c(-c2cc(F)ccc2Br)c1C(=O)NCCc1c[nH]c2ccccc12,active: 28.8%
9,CC1(C)CC(=O)c2c(O)cc(OCC(=O)N3CCN(c4ccccc4)CC3)cc2O1,inconclusive: 56%
10,COC(=O)c1ccc(/C=C/c2c(-c3ccc(OC)cc3)oc3ccccc23)cc1,inconclusive: 72.5%
11,Cc1cc(OCC(=O)NC(Cc2c[nH]c3ccc(O)cc23)C(=O)O)c2c(C)c(C)c(=O)oc2c1 (configuration not stated),active: 93.6%
12,COCC(=O)Nc1ccc2c(c1)[C@@H]1C[C@@H](CC(=O)N3CCN(C)CC3)O[C@H](CO)[C@@H]1O2,inactive: 2.6%
13,Cc1sc2ncnc(N3CCC(C(=O)Nc4ccc(Cl)cc4Cl)CC3)c2c1C,active: 29.6%
14,CCOC(=O)N1CCC(NC(=S)Nc2ccc3nc(N4CCN(C)CC4)cc(C)c3c2)CC1,inconclusive: 28.7%
15,Cn1c2ccccc2c(=O)c2c(=O)n(Cc3ccco3)c(-c3ccc(F)cc3)nc21,inconclusive: 49%
16,O=S(=O)(c1ccc(Cl)c(C(F)(F)F)c1)N1CCN(c2ccccn2)CC1,inconclusive: 33%
17,OC[C@@H]1[C@@H](c2ccc(-c3cccnc3)cc2)[C@@H]2CN(Cc3ccccn3)CCCCN12,inactive: 3.08%
18,CCCNC(=O)N1CC2(CN(S(=O)(=O)c3cccc(OC)c3)C2)c2c(n(C)c3cc(OC)ccc23)[C@H]1CO,active: 40.6%
19,Cc1ccc(CN2C(=O)C(F)(F)Oc3ccc(C)cc32)cc1,inconclusive: 33.5%
20,CCCC(=O)Nc1ccc2c(c1)C(=O)N(C)C[C@H](OC)[C@H](C)CN(C(=O)C1CCCC1)[C@@H](C)CO2,inactive: 12.7%
21,Cc1ccc(S(=O)(=O)N(C)C[C@@H]2Oc3ccc(NC(=O)c4ccncc4)cc3CC(=O)N([C@H](C)CO)C[C@H]2C)cc1,active: 20.7%
22,COc1ccccc1NC(=O)N1CC(=O)N2[C@H](CO)[C@@H](c3ccc(-c4ccc(C)cc4)cc3)[C@@H]2C1,inactive: 16.9%
23,O=C(O)C[C@@H]1CC[C@H](NC(=O)CCN2CCCCC2)[C@H](CO)O1,active: 20.1%
